Experimental data reported in PubChem BioAssay AID2685 (National Center for Advancing Translational Sciences (NCATS), 2010).
Some of the results follow. Shown are side measurements of this screen, not its main read-out; they come without a call. Most of these compounds were active or inconclusive in the main read-out, so they are no random draw. The note in brackets gives the kind of curve behind each potency; many fits are weak.

Experiment: qHTS Assay for Lipid Storage Modulators in Drosophila S3 Cells;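 as to cell number change: cells counted by Cell Tracker Red CMTPX staining in the red channel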
Settings: BODIPY lipid droplet fluorescence, 18-24 h; for cell number change: measured here: cell count max response, cells fed with added oleic acid
Summary of the method: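 Drosophila S3 cells got compounds at several concentrations plus oleic acid (400 uM solution). Laser-scanning cytometry with 488 nm excitation read lipid droplets at 500-530 nm and cells at 575-640 nm. Percent activity was relative to 20 uM Triacsin C.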

[1] = measured here: cell number channel AC50, cells fed with added oleic acid
[2] = measured here: lipid fluorescence (Fed channel) AC50, cells fed with added oleic acid

Row | Compound | cell number change [%] | AC50 [1] | AC50 [2]
1 | COC(=O)C(=C/C=C/N1CCOCC1)C(=O)OC | -18.8 | 6.51 µM [rising, single point] | 20.6 µM [falling, single point]
2 | O=C(CSc1nnc(-c2ccco2)o1)NC1CC2CCC1C2 (stereo unspecified) | – | 6.51 µM [rising, single point] | –
3 | O=C1CCCc2ccccc2N1Cc1ccccc1 | 23.1 | – | 0.103 µM [falling, single point]
4 | O=C(Nc1ccn(Cc2c(F)c(F)c(F)c(F)c2F)n1)c1ccc(COc2ccccc2Cl)cc1 | 24.7 | – | –
5 | CCCC(=O)Nc1cc(OCC)c(NC(=O)NC2CCCCC2)cc1OCC | 29 | 0.184 µM [rising, full curve, poor fit] | –
6 | Cc1ccc2nc(NCc3ccccc3)c(C=O)c(=O)n2c1 | 13 | – | 0.326 µM [rising, full curve, poor fit]
7 | Cc1ncc([N+](=O)[O-])n1Cc1ccc(Br)cc1 | 90.1 | 23.1 µM [rising, partial curve] | –
8 | O=C(NC1CC1)c1ccc2c(c1)NC(=O)c1ccccc1S2 | -47.1 | 29.1 µM [falling, single point] | 0.092 µM [falling, full curve, poor fit]
9 | CC12CCC3c4ccc(O)cc4CCC3C1CC(O)C2O (stereo unspecified) | -33.5 | – | –
10 | O=C(CCN1C(=O)/C(=C/c2ccccc2Cl)SC1=S)NC1C=CS(=O)(=O)C1 (stereo unspecified) | 1.15 | – | 29.1 µM [rising, single point]
11 | CN(c1ccccc1C(=O)N1CCN(c2ccccc2F)CC1)S(=O)(=O)c1ccccc1 | 1.16 | – | 0.184 µM [rising, full curve, poor fit]
12 | Cc1cc(C)c2nc(N(CCCN(C)C)C(=O)c3ccc4c(c3)OCCO4)sc2c1 | – | – | 16.4 µM [falling, single point]
13 | CCCCCC(=O)Nc1ccc(C(=O)COC(=O)c2ccccn2)cc1 | 1.79 | – | 0.461 µM [falling, single point]
14 | Cc1cc(C)n2nc(SCC(=O)N/N=C/c3ccccn3)nc2n1 | 13.4 | – | 10.3 µM [rising, single point]
15 | O=C1c2ccccc2C(=O)c2cc(S(=O)(=O)Nc3ccccc3)ccc21 | -0.74 | – | 29.1 µM [rising, single point]
16 | C[C@@H](C(=O)Nc1ccc2ccccc2c1)[C@H]1C[C@]1(C)[C@H](NS(=O)(=O)c1ccc(-c2ccccc2)cc1)c1ccccc1 | -0.42 | – | 7.31 µM [rising, partial curve]
17 | CN1C(=O)/C(=C2\SC(=S)N(NC(=O)c3cccnc3)C2=O)c2ccccc21 | 5.96 | – | 29.1 µM [falling, single point]
18 | CCCCCCNC(=O)c1c(O)c2cccc3c2n(c1=O)CCC3 | 16.1 | 1.46 µM [rising, partial curve, poor fit] | 0.82 µM [rising, partial curve, poor fit]
19 | O=C1CCCCN1CC(=O)N1CCCC(N2CCN(c3ccccc3F)CC2)C1 (stereo unspecified) | 8.02 | – | –
20 | COc1ccc(Br)cc1C(=O)Nc1cccc(NC(=O)c2ccco2)c1 | -8.92 | – | 18.4 µM [rising, single point]

Copied from the list:
Entry of CC12CCC3c4ccc(O)cc4CCC3C1CC(O)C2O (stereo unspecified) under cell number change [%]: -33.5
Entry of Cc1cc(C)c2nc(N(CCCN(C)C)C(=O)c3ccc4c(c3)OCCO4)sc2c1 under AC50 [2]: 16.4 µM [falling, single point]

Next entries follow.

Row | Compound | cell number change [%] | AC50 [1] | AC50 [2]
21 | CC(C)(C)n1nnc(CCc2nnn(C(C)(C)C)n2)n1 | -3.47 | – | 16.4 µM [falling, single point]
22 | CNC(=O)NC(=O)C(C)OC(=O)c1oc2ccccc2c1CSc1ccc(Cl)cc1 (stereo unspecified) | 25.1 | – | 25.9 µM [falling, single point]
23 | Oc1ccc(/C=N/n2c3ccccc3c3ccccc32)cc1 | -23.7 | – | –
24 | O=C(NCCN1C(=O)S/C(=C\c2ccccc2)C1=O)c1cc(S(=O)(=O)N2CCOCC2)c(Cl)cc1Cl | -8.54 | – | 32.6 µM [falling, single point]
25 | COC(=O)c1cc(OC)c(OC)cc1NC(=O)c1ccc(OC)c(OC)c1 | -9.72 | 0.231 µM [rising, partial curve] | 3.26 µM [rising, full curve]
26 | C/C(=N\NC(N)=S)c1ccc(Cl)s1 | 0.656 | – | 29.1 µM [falling, single point]
27 | CC1=C(C(=O)OCc2ccccc2)N2C(=O)[C@@H](NC(=O)COc3ccccc3)[C@H]2SC1 | 22.3 | – | –
28 | COc1ccc(C(=O)C(C)OC(=O)c2sc(C)nc2C)cc1 (stereo unspecified) | -23 | – | 1.46 µM [falling, partial curve]
29 | CN(CC(=O)Nc1ccc(F)cc1)C(=O)COC(=O)C1CCN(c2ccc(C(F)(F)F)cn2)CC1 | 6.43 | – | –
30 | CCOC(=O)c1sc(=S)n(C)c1C | -33.2 | 1.46 µM [falling, full curve] | –
31 | O=C(CN(Cc1ccc(Cl)cc1)S(=O)(=O)c1ccccc1)NCC1CCCO1 (stereo unspecified) | -13.9 | – | 29.1 µM [rising, single point]
32 | Cc1ccccc1-c1nc(CS(=O)(=O)CC(=O)NCCc2ccccc2)c(C)o1 | – | – | 6.51 µM [falling, single point]
33 | O=C(Nc1nccs1)c1ccc(-c2ccc(F)c(Cl)c2)o1 | – | – | 6.51 µM [falling, partial curve]
34 | CCOC(=O)c1cnc2c(c(C3CC3)nn2C)c1N1CCOCC1 | 22.3 | 0.651 µM [falling, single point] | –
35 | CN(C)C(CNC(=O)CCc1c[nH]c2ccccc12)c1ccccc1 (stereo unspecified) | 19.1 | – | 2.91 µM [rising, single point]
36 | COc1ccc2[nH]c(=O)c(CN(C(=O)c3cccnc3)c3ccccc3OC)cc2c1 | 118 | 5.17 µM [rising, partial curve] | –
37 | O=C(CSc1nc2ccccc2c(=O)n1-c1ccccc1Cl)Nc1cccc(S(=O)(=O)N2CCOCC2)c1 | -19.8 | – | 0.731 µM [falling, full curve, poor fit]
38 | Cn1cc(Cl)c(C(=O)Nc2nc3ccccc3s2)n1 | – | 1.3 µM [rising, full curve, poor fit] | 6.51 µM [rising, single point]
39 | COc1ccc(C(=O)Nc2ccc(N3CCN(C(=O)c4ccccc4)CC3)cc2)cc1[N+](=O)[O-] | -1.23 | – | –
